Source: patent US11680082B2, “Conjugates of montelukast and peptides” (ENLITISA (SHANGHAI) PHARMACEUTICAL CO., LTD, priority 2018, dated 2023)
Part of at least one peptide drawing is inferred or uncertain, most often the ends. Non-standard residues stand in square brackets, D forms with d. Residues, ends and D or L forms follow the SMILES beside them. *: point of attachment. X2 = CC(C)(O)c1ccccc1CC[C@@H](SCC1(CC(=O)*)CC1)c1cccc(/C=C/c2ccc3ccc(Cl)cc3n2)c1; Hyp = O=C(O)[C@@H]1C[C@@H](O)CN1

Tested on: fever, cough, runny nose
Assay: Clinical Example XII, fever relief
Assay type: in vivo, human

## C[C@H](NC(=O)CC1(CS[C@H](CCc2ccccc2C(C)(C)O)c2cccc(/C=C/c3ccc4ccc(Cl)cc4n3)c2)CC1)C(=O)N[C@@H](CCCCN)C(=O)N1CCC[C@H]1C(=O)N[C@@H](CO)C(=O)N[C@@H](Cc1ccc(O)cc1)C(=O)N1C[C@H](O)C[C@H]1C(=O)N1C[C@H](O)C[C@H]1C(=O)N[C@H](C(=O)N[C@@H](Cc1ccc(O)cc1)C(=O)N[C@@H](CCCCN)C(=O)O)[C@@H](C)O [Compound E, Montelukast-Ala-Lys-Pro-Ser-Tyr-Hyp-Hyp-Thr-Tyr-Lys] (X2-AKPSY[Hyp][Hyp]TYK-OH)
2045 hours second day, after fourth dose
  body temperature: 37.1 °C
2215 hours second day, after fifth dose
  body temperature: 36.8 °C
By 0330, after two nasal doses (2 mg, 1 mg), start 39° C.
  body temperature: 37.0 °C
